PubChem BioAssay AID504791 – Drosophila RNAi Screening Center, 2011

Purpose: 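Genes whose knock-down strengthens or weakens small-RNA reporter silencing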 (primary screen)
Cells: Drosophila S2-derived reporter cells
Reagent: long dsRNA against Drosophila genes, about 150-250 ng dsRNA per well (siRNA assay); about 80-120 ng (miRNA assay)
Timing: about 5 days (siRNA assay); about 4 days (miRNA assay)
Conditions: copper sulfate induction of reporters: 25 µM (siRNA assay); 200 mM stated (miRNA assay), 1-2 days before reading
Measurement: 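Dual luciferase assay: Renilla to firefly signal ratio in each well, scaled to the mean ratio of its plate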
Direction: siRNA reporter hit score: higher = 3 marks a strong hit with raised ratio; -3 a strong hit with lowered ratio
Hit rule: 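First-pass picks had plate-scaled ratios over 1.5 for the siRNA assay, over 1.6 for the miRNA assay, or under 0.6; two distinct dsRNAs had to score alike on retest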
The deposit covers about 23,000 reagents; below is a random part of those with a known target gene and a result. In the full data, 199 (0.86%) got an active call. 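Plate-scaled ratios behind the calls are not deposited; printed light signals are raw; many rows marked increased or decreased are still called inactive.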 A plus sign joins genes that one reagent is predicted to hit.

Target gene | dsRNA | siRNA reporter hit score | miRNA reporter change | stable assay Renilla, run 1 (luminescence) | stable assay firefly, run 1 (luminescence) | activity call
CG15888 (GeneID 41630) | DRSC15125 | – | – | 7274 | 3.66e5 | inactive
CG14391 (GeneID 41567) | DRSC14850 | – | – | 7840 | 4.74e5 | inactive
Treh (GeneID 45368) | DRSC04548 | – | – | 25837 | 7.67e5 | inactive
PGRP-LE (GeneID 32534) | DRSC20137 | – | – | 8721 | 5.25e5 | inactive
CG2145 (GeneID 32027) | DRSC19835 | – | – | 8707 | 4.93e5 | inactive
Rad51D (GeneID 35937) | DRSC06840 | – | – | 6786 | 3.69e5 | inactive
CG6428 (GeneID 31351) | DRSC18402 | – | – | 5399 | 3.30e5 | inactive
Cul6 (GeneID 39474) | DRSC09830 | – | – | 8553 | 4.29e5 | inactive
haf (GeneID 33339) | DRSC00381 | – | – | 7354 | 3.78e5 | inactive
ND-B8 (GeneID 50178) | DRSC00449 | – | – | 7709 | 4.40e5 | inactive
RpS30 (GeneID 42470) | DRSC15119 | 3 | – | 6775 | 2.66e5 | inactive
RpS30 (GeneID 42470) | DRSC26355 | – | reporter ratio lowered past the hit cutoff | – | – | active
e(y)2b (GeneID 50143) | DRSC12556 | – | – | 6906 | 4.94e5 | inactive
CG4691 (GeneID 34856) | DRSC01950 | – | – | 24676 | 1.38e6 | inactive
Tsp97E (GeneID 43241) | DRSC16019 | – | – | 7727 | 4.23e5 | inactive
beat-Vc (GeneID 41575) | DRSC12927 | – | – | 4292 | 3.87e5 | inactive
beat-Vc (GeneID 41575) | DRSC14849 | – | – | 6171 | 4.37e5 | inactive
trn (GeneID 39491) | DRSC11407 | – | – | 6739 | 3.85e5 | inactive
CG13920 (GeneID 38203) | DRSC08389 | – | – | 9183 | 3.52e5 | inactive
CG3270 (GeneID 35575) | DRSC04988 | – | – | 25343 | 1.07e6 | inactive
CG11679 (GeneID 32515) | DRSC19415 | – | – | 6191 | 4.03e5 | inactive
CG32576 + UQCR-14 | DRSC19870 | – | – | 4120 | 3.54e5 | inactive
CG12020 (GeneID 38233) | DRSC08226 | – | – | 4827 | 3.03e5 | inactive
mod(mdg4) (GeneID 49228) | DRSC13474 | – | – | 3323 | 2.91e5 | inactive
mod(mdg4) (GeneID 49228) | DRSC13475 | – | – | 3220 | 3.03e5 | inactive
mod(mdg4) (GeneID 49228) | DRSC13478 | – | – | 4192 | 3.25e5 | inactive
mod(mdg4) (GeneID 49228) | DRSC13479 | – | – | 3611 | 3.59e5 | inactive
mod(mdg4) (GeneID 49228) | DRSC15042 | – | – | 7799 | 4.67e5 | inactive
mod(mdg4) (GeneID 49228) | DRSC17000 | – | – | 11683 | 4.74e5 | inactive
Trs31 (GeneID 36641) | DRSC05975 | – | – | 7107 | 3.07e5 | inactive
CG6295 (GeneID 43247) | DRSC16012 | – | – | 7855 | 4.87e5 | inactive
Sgs5bis (GeneID 42113) | DRSC16263 | – | – | 6596 | 4.52e5 | inactive
jar (GeneID 42889) | DRSC16974 | – | – | 5979 | 2.75e5 | inactive
CG15517 (GeneID 43537) | DRSC15056 | – | – | 5715 | 3.26e5 | inactive

An excerpt from above, showing only “stable assay firefly, run 1 (luminescence)”.
CG14391 (GeneID 41567) [DRSC14850]: 4.74e5
Treh (GeneID 45368) [DRSC04548]: 7.67e5
PGRP-LE (GeneID 32534) [DRSC20137]: 5.25e5
CG2145 (GeneID 32027) [DRSC19835]: 4.93e5
Rad51D (GeneID 35937) [DRSC06840]: 3.69e5
